Reference: US9259399B2, “Targeting CDK4 and CDK6 in cancer therapy” (Cornell University, priority 2007, dated 2016)
Some of these results come from one statement about several compounds together.

System: Luc+GFP+MM1.S cells
Assay: NOD/SCID xenograft human myeloma model (bioluminescence imaging)
Type: in vivo, NOD/SCID mice
Details: PD 0332991 80 mg/kg or bortezomib 0.25 mg/kg alone; by day 21

Row | SMILES | tumor growth reduction, single agent
1 | CC(C)C[C@H](NC(=O)[C@H](Cc1ccccc1)NC(=O)c1cnccn1)B(O)O [bortezomib] | less than 50%
2 | CC(=O)c1c(C)c2cnc(Nc3ccc(N4CCNCC4)cn3)nc2n(C2CCCC2)c1=O [PD 0332991, 6-acetyl-8-cyclopentyl-5-methyl-2-[5-piperazin-1-yl-pyridin-2-ylamino)-8H-pyrido[2,3-d]pyrimidin-7-one] | less than 50%
